Measured values: article PMC9944232
The exact form of at least one protein or probe is not confirmed. For some assays here: A weaker result is weaker than the reference pair of the same experiment.

Amino acid sequences for entries named in this document (tags omitted). A change or cut given only in a name is not applied to a line headed by its entry. Residues count along the entry.
UniProt P62937: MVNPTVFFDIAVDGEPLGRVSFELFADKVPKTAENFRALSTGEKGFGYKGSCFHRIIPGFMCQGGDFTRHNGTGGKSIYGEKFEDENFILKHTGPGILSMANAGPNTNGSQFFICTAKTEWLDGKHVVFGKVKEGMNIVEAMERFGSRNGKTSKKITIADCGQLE
UniProt O95831, 102-613, stated change not applied: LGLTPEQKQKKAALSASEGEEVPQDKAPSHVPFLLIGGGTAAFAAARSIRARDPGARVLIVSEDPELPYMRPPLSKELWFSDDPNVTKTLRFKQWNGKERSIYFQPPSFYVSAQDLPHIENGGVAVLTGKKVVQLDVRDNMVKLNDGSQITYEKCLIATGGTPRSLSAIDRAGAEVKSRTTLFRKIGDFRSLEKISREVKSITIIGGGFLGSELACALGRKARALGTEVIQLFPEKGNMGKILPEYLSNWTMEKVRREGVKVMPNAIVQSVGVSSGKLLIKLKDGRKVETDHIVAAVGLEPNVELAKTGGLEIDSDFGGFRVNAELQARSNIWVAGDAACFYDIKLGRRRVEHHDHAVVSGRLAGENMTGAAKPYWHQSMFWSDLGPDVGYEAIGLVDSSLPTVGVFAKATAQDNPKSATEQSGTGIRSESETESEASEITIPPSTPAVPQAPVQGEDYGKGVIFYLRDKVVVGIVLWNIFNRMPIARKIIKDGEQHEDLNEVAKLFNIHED

How the values were obtained:
CypA (Homo sapiens) = CypA (Homo sapiens) (UniProt P62937); test: ITC; details: binary, lowest dsDNA affinity, value in Table S4 not in material; ITC: 50 mM potassium phosphate pH 7.4, 15 °C (25 °C with CypA); recombinant protein; protein details: N-terminal His6
[1] = target: AIFΔ101 WT (Homo sapiens) (UniProt O95831); test: ITC; details: Kd dsDNA from cooperativity fit, H2AX titrated into AIF:dsDNA, alpha 2.7, printed Ka 0.1 /uM; ITC: 50 mM potassium phosphate pH 7.4, 15 °C (25 °C with CypA); recombinant protein; residues 102-613; protein details: N-terminal His6

## GGTTAGTTATGCGCG (double strand) [15-bp dsDNA]
CypA (Homo sapiens)
  binding result: binds more weakly
[1]
  Kd: 9.8 µM
